According to patent US8383817B2, “Benztropine compounds and uses thereof” (The United States of America, as represented by the …, priority 2005, dated 2013):
Some entries share one result that the patent states for a list of compounds.

Protein sequences, listed by entry. Tags and fused reporters are not part of them.
UniProt Q61327, whole entry: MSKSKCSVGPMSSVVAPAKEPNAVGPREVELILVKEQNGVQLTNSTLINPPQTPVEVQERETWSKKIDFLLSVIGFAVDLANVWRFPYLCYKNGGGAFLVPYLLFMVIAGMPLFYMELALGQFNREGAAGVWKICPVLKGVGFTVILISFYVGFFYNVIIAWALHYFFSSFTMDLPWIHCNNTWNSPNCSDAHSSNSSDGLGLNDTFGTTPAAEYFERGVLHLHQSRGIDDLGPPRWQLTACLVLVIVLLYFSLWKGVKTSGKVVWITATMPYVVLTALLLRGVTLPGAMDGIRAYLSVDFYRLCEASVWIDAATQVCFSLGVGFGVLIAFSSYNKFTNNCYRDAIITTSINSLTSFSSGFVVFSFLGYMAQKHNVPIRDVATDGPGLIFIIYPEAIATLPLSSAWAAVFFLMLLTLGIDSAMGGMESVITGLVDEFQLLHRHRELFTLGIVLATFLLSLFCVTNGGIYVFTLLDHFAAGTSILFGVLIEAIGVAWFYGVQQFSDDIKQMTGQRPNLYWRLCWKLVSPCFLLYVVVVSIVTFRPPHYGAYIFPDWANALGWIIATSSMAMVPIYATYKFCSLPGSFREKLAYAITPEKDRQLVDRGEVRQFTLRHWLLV

Target: T1, dopaminergic transporter sites (Mus musculus, UniProt Q61327)
T1 construct: Whole brains were rapidly removed and striatum and cerebellum were dissected on ice; from tissue; host or cells: mouse striatum, in vivo occupancy
Assay: In vivo binding of [125I]RTI-121 (displacement in striatum)
Details: mice, IP injection of displacer, striatum vs cerebellum, FIG. 3
Text: In vivo binding of [^125I]RTI-121. Each animal received an i.v. injection of 2 μCi of [^125I]RTI-121. Two hours after administration of [^125I]RTI-121, the animals were sacrificed by cervical dislocation. In each mouse, displacement of [^125I]RTI-121 was examined by giving an i.p. injection of one of the displacers at various doses and times relative to sacrifice, Displacement by test drugs at various doses was examined at various times after their injection, with each data point determined in sets of approximately six mice. Whole brains were rapidly removed and striatum and cerebellum were dissected on ice.
Regional radioactivity levels were divided by weight (gram) of the tissue (CPM/tissue weight). Specific binding was calculated as CPM/tissue weight in striatum divided by cerebellum minus 1 (S/C−1), which is based on the observation that dopaminergic transporter sites are highly concentrated in the striatum and relatively absent in the cerebellum. These values were expressed as a percentage of specific binding after vehicle injection. Data were analyzed using two-way analysis of variance (ANOVA), and a post-hoc Tukey's test was used to determine significance of effects for individual doses at different time periods following IP injection of compound 1a (FIG. 3A), 1b (FIG. 3B), MFZ 2-74 (R^1=Me; R^2,3=F; R^4=CO2-^iPr) (FIG. 3C), 15 (FIG. 3D), and 14 (FIG. 3E). […]

COC(=O)[C@@H]1[C@@H](OC(c2ccc(Cl)cc2)c2ccc(Cl)cc2)C[C@H]2CC[C@@H]1N2C [Compound S-14]
Time of maximal displacement of [125I]RTI-121 after injection: > 180 min
